## Primary screen of a compound library

Data taken from ChEMBL document CHEMBL3988442, “University of Dundee, Small-Polar-MMV Screening Library” (2021).

Mtb growth Cornell: 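Whole-cell assay for inhibitors of Mycobacterium tuberculosis growth, labelled Cornell in the record; the read-out is not stated. The concentration is filed as 10 mM, unlikely as a test dose, so the dose is not known. Higher means stronger inhibition (inferred from two other growth screens of the library). Of about 53,000 compounds tested this way, about 900 (1.7%) reached 50% or more in at least one test.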
Mtb heat-shock: 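Assay on Mycobacterium tuberculosis, filed only as a heat shock assay from Cornell; the read-out is not stated. The concentration is filed as 10 mM, unlikely as a test dose, so the dose is not known. Direction is inferred from retests: higher values go with stronger inhibition. Of about 69,000 compounds tested this way, about 930 (1.4%) reached 50% or more in at least one test.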

The filed quantity is “Percent Effect” (%).
How 0% and 100% were set is not recorded. Most values in the screen are low, and negative values occur.
Compounds were drawn at random from those tested, without regard to their results.
A dash means the value is not listed here; it may have been measured.

| # | SMILES | Mtb growth Cornell | Mtb heat-shock |
|---|---|---|---|
| 1 | `Cc1ccc(OCC(=O)Nc2cnccc2SCCCO)cc1C` | 12.67 | 1.844 |
| 2 | `COC(=O)NC1(C(=O)Nc2ccc(-c3ncc[nH]3)cc2)CCCC1` | 7.377 | 5.651 |
| 3 | `COc1ccc(C2CCCN2C(=O)c2ccc(=O)n(C)c2)cc1OC` (centres unmarked) | - | 4.651 |
| 4 | `COCCn1cnnc1CCNc1cc(C)nc2ccnn12` | -38.23 | -30.1 |
| 5 | `CN(Cc1nnc2n1CCC2)C(=O)c1ccc2c(c1)OCCO2` | - | -27.49 |
| 6 | `CCc1noc(CNc2cc(F)ccc2OCC2CCCO2)n1` (centres unmarked) | - | 3.736 |
| 7 | `Cc1ccc(NC(=O)C2CCc3ccccc3N2)cc1` (centres unmarked) | -15.46 | -7.502 |
| 8 | `CC(C)C(C)NC(=O)CN1CCSCC1` (centres unmarked) | 5.007 | -19.08 |
| 9 | `C1CC(NCc2nnc(C3CC3)o2)CN(Cc2noc(C3CC3)n2)C1` (centres unmarked) | - | -4.742 |
| 10 | `Cc1ccc(-c2cc(-c3nc(CN4CCN(C)CC4)no3)n[nH]2)cc1` | -27 | 2.522 |
| 11 | `CN(Cc1n[nH]c(=O)n1CCc1ccccc1F)S(C)(=O)=O` | 9.57 | 1.033 |
| 12 | `Cc1nc(NC(=O)C(C)N2CCN(c3ccccc3F)CC2)sc1C` (centres unmarked) | 34.82 | -15.45 |
| 13 | `CCN1CC2(CC1=O)CN(Cc1ccco1)CCN(C(=O)C(C)C)C2.O=C(O)C(F)(F)F` (centres unmarked) | 15.62 | -17.12 |
| 14 | `O=C(CNC(=O)c1cnc2ccccc2c1O)NCCCn1ccnc1` | - | -4.371 |
| 15 | `Cc1cc(CNCCNS(C)(=O)=O)sc1Br` | -11.21 | -15.89 |
| 16 | `COc1ccccc1CNc1ccc2nncn2n1` | 9.634 | -29.07 |
| 17 | `COC[C@@H]1CCC[C@]12CN(CCc1ccccc1)CCO2.O=C(O)C(F)(F)F` | -4.553 | -21.94 |
| 18 | `c1cc(-c2c[nH]c([C@@H]3COCCN3CC3CC3)n2)ccn1` | -2.626 | -7.21 |
| 19 | `Cn1cc(C[C@H]2[C@H](N3CCOCC3)CCN2C(=O)c2ccc[nH]2)cn1` | 20.89 | 1.089 |
| 20 | `CCOCC(=O)N1CCc2c(ncnc2N2CCOCC2)C1` | -33.07 | 0.01113 |
| 21 | `Cc1cnn(CCNCC(=O)NCC2(c3ccccc3)CCC2)c1` | - | -7.099 |
| 22 | `O=C(O)C(F)(F)F.[H][C@@]12CCN(C(=O)c3ccoc3)C[C@]1(COc1ncccc1F)CCO2` | 13.34 | 13.65 |
| 23 | `O=C(Nc1cccn(CC(F)(F)F)c1=O)c1ccncc1F` | 21.32 | 17.88 |
| 24 | `CCC(=O)N1CCC(O)(c2ncc(OC)nc2OC)CC1` | - | -1.086 |
| 25 | `CC[C@H]1CN(C(=O)c2ccc(-n3cnnc3)nc2)CC[C@@]1(C)O` | -17.68 | -5.653 |
| 26 | `O=C(O)C(F)(F)F.[H][C@@]12COC[C@]1(CNC(=O)CC1CC1)CN(c1ncc(F)cn1)C2` | -5.29 | -5.106 |
| 27 | `CCC(C)(NCC(=O)NC(=O)NC)c1nc(C)cs1` (centres unmarked) | - | 0.7458 |
| 28 | `CCCc1nnc(N2CCN(Cc3ccccc3OC)CC2)o1` | -2.364 | -12.06 |
| 29 | `O=C(NCc1nnc2n1CCCC2)c1cn(-c2ccccc2)nn1` | 2.97 | 13.39 |
| 30 | `CN(c1ccc(C(=O)NCCCN2CCOCC2)c(Cl)c1)S(C)(=O)=O` | -27.49 | -0.5172 |
| 31 | `[H][C@@]12OCCN(C(=O)c3ccnnc3)[C@@]1([H])CC[C@H]2Oc1cccnc1` | -10.88 | 14.25 |
| 32 | `CC1=C(c2ccc(C)cc2)S(=O)(=O)N=C1N1CCc2ccccc21` | 21.59 | 15.49 |
| 33 | `O=C(O)C(F)(F)F.c1cnc(N2CC[C@@H](OCC3CC3)[C@@H]2Cc2cccnc2)nc1` | 13.89 | 5.874 |
| 34 | `O=C(Nc1nncs1)NC1CCOc2ccccc21` (centres unmarked) | 11.45 | -14.16 |
| 35 | `CC(C)(C)CN1CCCC(O)(CN2CCc3[nH]ncc3C2)C1=O` (centres unmarked) | -15.53 | -28.48 |
| 36 | `[H][C@]12C[C@H](C(=O)NC)N(S(C)(=O)=O)[C@@]1([H])CN(C(=O)c1cscn1)C2` | 6.632 | -3.183 |
| 37 | `CN(Cc1ccccc1)C1(C(=O)NCC(N)=O)Cc2ccccc2C1` | -23.37 | -33.76 |
| 38 | `CC(C)n1cnnc1SCCN(C)c1ccccc1` | - | 5.315 |
| 39 | `O=C(NCCOc1cccc(Cl)c1)C1CC(=O)N(CC2CC2)C1` (centres unmarked) | -5.724 | -14.11 |
| 40 | `N#Cc1ccc(NCCC(=O)N2CCCc3ccccc32)nc1` | - | 0.1034 |
| 41 | `O=C(CS(=O)(=O)c1cccc[n+]1[O-])NC1CCCc2ccccc21` (centres unmarked) | 5.555 | 23.72 |
| 42 | `Cc1nn(C)c2nc(NC(C)c3n[nH]c(=O)[nH]3)sc12` (centres unmarked) | - | -2.481 |
| 43 | `COCC(C)NC(=O)CN1CCC2(CC1)OCCO2` (centres unmarked) | -26.65 | 9.862 |
| 44 | `COCCC(=O)N1CC2(CCN(Cc3ccoc3)C2)C1` | - | -15.94 |
| 45 | `COc1cc(C)sc1C(=O)NCCC(=O)N(C)c1ccccc1` | 20.37 | 0.1249 |
| 46 | `COc1cccc2cc(CNC(C)(C)C(=O)N3CCC(O)CC3)oc12` | 16.26 | 11.25 |
| 47 | `Cc1ccc(N(CCC#N)C(=O)CN2CCCC2c2cccs2)cc1` (centres unmarked) | 16.58 | 21.75 |
| 48 | `Cc1cc(CN2CCOC(Cn3nc(C)cc3C)C2)on1` (centres unmarked) | - | -7.316 |
| 49 | `CNC(=O)c1cn[nH]c1C1CCN(Cc2ccccc2F)C1` (centres unmarked) | -6.719 | 19.17 |
| 50 | `COCC1CN(Cc2ccoc2)Cc2cn(C)nc21` (centres unmarked) | -9.963 | -6.513 |
| 51 | `CCn1nc(C)c(CN2CCC(c3ccc(C(=O)O)cc3)C2)c1C` (centres unmarked) | 1.675 | -40.81 |
| 52 | `CN(CC1CCN(CCO)CC1)CC(O)c1ccc(F)c(F)c1` (centres unmarked) | -49.19 | 7.038 |
| 53 | `CC/C=C(/C)C(=O)NCc1ccnc(OC2CCOCC2)c1` | - | 0.1679 |
| 54 | `Cn1cnnc1-c1ccnc(NCc2ccc3c(c2)OCCO3)c1` | - | -6.76 |
| 55 | `CC(Cc1ccccc1F)C(=O)Nc1ccc(OCCC(N)=O)cc1` (centres unmarked) | 6.701 | -19.89 |
| 56 | `COc1ccc(C(=O)Nc2n[nH]c(C3CCCO3)n2)cc1` (centres unmarked) | 13.14 | -22.32 |
| 57 | `O=C(Cc1csc(-c2ccccc2F)n1)NCc1ccc(C(=O)O)cc1` | -2.147 | 2.624 |
| 58 | `CC(C)c1noc(C2CCN(S(=O)(=O)c3cccs3)CC2)n1` | - | 7.58 |
| 59 | `O=C(O)C(F)(F)F.OCCOCc1n[nH]c2c1CN(Cc1ccco1)C2` | -22.13 | -8.111 |
| 60 | `Cn1cc(CN2CCC3(CC2)NC(=O)CC3c2ccncc2)cn1.O=C(O)C(F)(F)F.O=C(O)C(F)(F)F` (centres unmarked) | 11.64 | -25.94 |
| 61 | `Cl.O=C(Nc1ccc(F)cc1)C(c1ccccc1)N1CCOCC1` (centres unmarked) | 17.34 | -22.41 |
| 62 | `CN1CCC(N2CCOC[C@H]2c2nc(-c3ccncc3)c[nH]2)CC1` | -2.371 | -47.79 |
| 63 | `CC(=O)NCc1cc2n(n1)CCN(Cc1ccccc1OC(F)(F)F)C2` | -1.788 | 17.7 |
| 64 | `O=c1[nH]ncn1-c1cccc(C(F)(F)F)c1` | 26.07 | 5.802 |
| 65 | `CCN1CCCN(c2ncccc2C(=O)N2CCCCC2)CC1` | 5.552 | -7.752 |
| 66 | `O=C(O)C(F)(F)F.O=C(c1ccc(F)cc1)N1CCC2(CC1)CC(N1CCOCC1)C2` | 13.88 | -6.352 |
| 67 | `Cc1noc(C)c1CN1Cc2nccn2CC(CN2CCOCC2)C1.O=C(O)C(F)(F)F.O=C(O)C(F)(F)F` (centres unmarked) | 8.203 | -26 |
| 68 | `Cc1cncc(C2CCN(C(=O)CCc3ccnn3C)CC2)n1` | -42.3 | -11.23 |
| 69 | `Cc1[nH]c2nc(CNc3cccc(Cl)c3)nn2c(=O)c1C` | 14.74 | 20.1 |
| 70 | `O=C(O)C(F)(F)F.[H][C@]12CCN(c3ccccn3)[C@@]1([H])CC[C@H](COCC(=O)N1CCCC1)O2` | -10.45 | -22.7 |
| 71 | `Cc1cc(NC(=O)N(C)C2CCN(c3ccccc3F)C2=O)n(C)n1` (centres unmarked) | 15.56 | 16.13 |
| 72 | `CC(CC(=O)c1ccccc1)NC(=O)c1ccon1` (centres unmarked) | - | 17.15 |
| 73 | `Cc1nnc(SC2CCN(c3sccc3C#N)C2=O)s1` (centres unmarked) | -3.88 | -17.87 |
| 74 | `CC(C)c1nc(C2CCCN(Cc3nnc(C4CC4)o3)C2)no1` (centres unmarked) | - | 9.365 |
| 75 | `CCC[C@H]1CN(S(C)(=O)=O)C[C@@H]1NC(=O)CCCn1ccnc1` | 12.46 | -2.492 |
| 76 | `Cc1cc(N2CCC(C(=O)O)(n3ccc(C(C)(C)C)n3)CC2)nc(N)n1` | 5.557 | 8.444 |

For reference, 9 entries once more:

SMILES,Mtb growth Cornell,Mtb heat-shock
CN(c1ccc(C(=O)NCCCN2CCOCC2)c(Cl)c1)S(C)(=O)=O,-27.49,-0.5172
CC(CC(=O)c1ccccc1)NC(=O)c1ccon1 (centres unmarked),-,17.15
O=C(CS(=O)(=O)c1cccc[n+]1[O-])NC1CCCc2ccccc21 (centres unmarked),5.555,23.72
CCC(C)(NCC(=O)NC(=O)NC)c1nc(C)cs1 (centres unmarked),-,0.7458
CCC[C@H]1CN(S(C)(=O)=O)C[C@@H]1NC(=O)CCCn1ccnc1,12.46,-2.492
Cc1cnn(CCNCC(=O)NCC2(c3ccccc3)CCC2)c1,-,-7.099
COc1ccc(C2CCCN2C(=O)c2ccc(=O)n(C)c2)cc1OC (centres unmarked),-,4.651
O=C(O)C(F)(F)F.c1cnc(N2CC[C@@H](OCC3CC3)[C@@H]2Cc2cccnc2)nc1,13.89,5.874
Cc1nn(C)c2nc(NC(C)c3n[nH]c(=O)[nH]3)sc12 (centres unmarked),-,-2.481